US20050136043A1, “TGFbeta signaling inhibitors” (Ludwig Institute for Cancer Research, priority 2003, published 2005)

Molecular target: GST-TβRI
Details: read-out: IC50 GST-TβRI in vivo; in vivo (cells)

Compound: C[S+]([O-])c1ccc(-c2nc(-c3ccncc3)c(-c3ccc(F)cc3)[nH]2)cc1 (stereo not shown) [SB203580]
- IC50: 10 µM
